Measured values reported in PubChem BioAssay AID540276 (National Center for Advancing Translational Sciences (NCATS), 2011).
Out of some 300,000 compounds screened, about 5,400 (1.8%) were called active. The shares of active, inactive and inconclusive entries below differ from those in the screen. Calls follow the shape of the full dose curve; tested in HEK293 cells. Potencies of inconclusive entries are doubtful fits and often do not repeat.

Assay: qHTS for inhibitors of binding or entry into cells for Marburg Virus
Details: Marburg virus pseudotyped entry inhibition, cell reporter; series mostly up to 37.8 µM
Potency is read from the fitted curve at half-maximal effect.

Structure (SMILES) | Potency
O=C(Nc1cnn(Cc2ccc(F)cc2)c1)C(c1ccccc1)c1ccccc1 | inconclusive: 0.82 µM [inhibitor, full curve, poor fit]
O=[N+]([O-])c1ccc(N/N=C/c2ccc(OCc3cccc4ccccc34)cc2)nc1 | inconclusive: 35.5 µM [inhibitor, single point]
Cc1ccc(C(=O)N/N=C(\CC(C)C)c2ccccc2)cc1 | inactive
N#Cc1c(Br)n(C2OC(CO)C(O)C2O)c2ncnc(N)c12 (stereo not given) | inconclusive: 0.0891 µM [inhibitor, full curve, poor fit]
COc1cc(OC)c(NC(=O)CCc2nc(-c3cccs3)no2)cc1Cl | inconclusive: 35.5 µM [inhibitor, single point]
Cc1ccccc1NC(C)C(=O)N/N=C/c1ccccc1OCc1cccc(Br)c1 (stereo not given) | inconclusive: 14.1 µM [inhibitor, single point]
COc1cccc(-c2cc(C(=O)NC3CCCCC3)no2)c1 | inconclusive: 2.82 µM [activator, partial curve, poor fit]
CCc1ccccc1NC(=O)c1cc(-c2ccc(OC)cc2)on1 | inactive
CCC(=O)NCCNc1nc2cc(C)c(C)cc2cc1C#N | inactive
Cc1cccc(CN2CCN(C3CN(Cc4ccc([N+](=O)[O-])cc4)S(=O)(=O)C3)CC2)c1 (stereo not given) | inconclusive: 0.0353 µM [inhibitor, full curve, poor fit]
CCCCN(CCCC)Cc1cc2ccccc2c2c1COC2 | inconclusive: 25.1 µM [inhibitor, single point]
Cc1cc(C=O)c(C)n1-c1ccc(NC2CCCCC2)c([N+](=O)[O-])c1 | inconclusive: 22.4 µM [inhibitor, single point]
CCN(CC)C(=O)COC(=O)c1cc(-c2ccco2)nc2ccccc12 | inconclusive: 6.31 µM [activator, partial curve, poor fit]
N=C1C=CC(=C(c2ccc(N)cc2)c2ccc(N)cc2)C=C1 | active: 3.98 µM
CCc1nc(N2CCN(S(C)(=O)=O)CC2)c2c3c(sc2n1)CCCC3 | inconclusive: 8.91 µM [inhibitor, partial curve]
Cn1c(NCc2ccco2)nc2c1c(=O)n(Cc1ccc(Cl)cc1)c(=O)n2C | inconclusive: 0.708 µM [inhibitor, full curve, poor fit]
COc1cc(C(=O)Nc2ccc3c(c2)CCN3C(C)=O)cc(OC)c1OC | inconclusive: 3.55 µM [inhibitor, single point]
COc1ccc(C2c3ccc(O)cc3Oc3ncn(CCN4CCOCC4)c(=N)c32)cc1OC (stereo not given) | inactive
COc1ccc(C(=O)N2CCN(c3cccc(Cl)c3)CC2)c(OC)c1 | inconclusive: 10 µM [inhibitor, partial curve, poor fit]
Nc1cc(=O)[nH]c(SCc2csc(-c3ccccc3)n2)n1 | inconclusive: 0.224 µM [activator, partial curve, poor fit]
Cc1cccc(OCc2nnc(SCC(=O)N(C)C3CCCCC3)o2)c1 | inactive
O=C(CCS(=O)(=O)c1cccc2nsnc12)NC1CCCCC1 | inconclusive: 29.1 µM [inhibitor, single point]
O=C(NCCN1CCOCC1)/C(=C/c1ccc(Cl)cc1)NC(=O)c1ccccc1 | inactive
COC(=O)c1ccc(NC(=O)Nc2ccc3c(c2)nc(C)n3C)cc1 | inconclusive: 15.8 µM [activator, single point]

Three compounds out of the list, sorted by count of non-hydrogen atoms, low to high:
Structure (SMILES) | Potency
COC(=O)c1ccc(NC(=O)Nc2ccc3c(c2)nc(C)n3C)cc1 | inconclusive: 15.8 µM [activator, single point]
COc1cc(OC)c(NC(=O)CCc2nc(-c3cccs3)no2)cc1Cl | inconclusive: 35.5 µM [inhibitor, single point]
COc1ccc(C2c3ccc(O)cc3Oc3ncn(CCN4CCOCC4)c(=N)c32)cc1OC (stereo not given) | inactive

Next compounds.

Structure (SMILES) | Potency
COc1ccc(NC(=O)c2cc(-c3cccs3)on2)cc1 | inconclusive: 35.5 µM [inhibitor, single point]
O=C(CSc1nc2ccccc2o1)Nc1ccccc1N1CCOCC1 | inconclusive: 3.16 µM [activator, single point]
COc1ccccc1N1CCN(CCCNC(=O)Nc2ccccc2)CC1 | inconclusive: 31.6 µM [inhibitor, single point]
Cc1cc(N2CCOCC2)ccc1/C=C1\NC(=O)N(CC(=O)Nc2ccccc2C)C1=O | inconclusive: 1.78 µM [inhibitor, partial curve, poor fit]
COc1ccccc1NC(=S)N/N=C/c1cccc(C)c1 | inconclusive: 3.55 µM [inhibitor, full curve, poor fit]
CCCn1nnc(NC(=O)c2cccc(OCC)c2)n1 | inactive
COc1ccc(CCNC(=O)[C@@H](NC(=O)c2ccccc2F)C(C)C)cc1OC | inconclusive: 10 µM [inhibitor, partial curve, poor fit]
O=C(OCc1ccccc1F)c1ccc2c(c1)-c1ccccc1C2=O | inactive
CCNC(=O)c1ccccc1SCC(=O)Nc1ccc(F)cc1 | inconclusive: 17.8 µM [activator, single point]
Cc1sc(NC(=O)CN(C)C2CCCCC2)nc1-c1ccc2c(c1)CCN2S(=O)(=O)c1ccccc1 | inactive
Cc1ccc(S(=O)(=O)N(CC(=O)N/N=C/c2cccc(C)c2)c2cccc3cccnc23)cc1 | inconclusive: 35.5 µM [inhibitor, single point]
Cc1csc(NC(=O)Cc2c[nH]c3ccccc23)n1 | inactive
Cc1cc(=O)n2[nH]c(C)cc2n1 | inactive
COc1ccc(Cl)cc1NC(=O)CN(c1cccc(C)c1C)S(C)(=O)=O | inconclusive: 35.5 µM [inhibitor, single point]
Cc1cccc(C2Nc3ccccc3C(=O)N2NC(=O)c2ccc([N+](=O)[O-])cc2)n1 (stereo not given) | inconclusive: 2.31 µM [inhibitor, partial curve, poor fit]
Cc1nc(N/N=C/c2ccc(O)cc2O)cc(N2CCOCC2)n1 | active: 2.82 µM
N#Cc1c(-c2ccccc2)nc(N2CCN(Cc3ccccc3)CC2)[nH]c1=O | inconclusive: 3.16 µM [activator, single point]
Cc1nn(S(=O)(=O)c2ccc([N+](=O)[O-])cc2)c(C)c1Sc1ccccc1 | inactive
COc1ccc(OC)c(C(=O)c2ccc(Cl)cc2)c1 | inconclusive: 0.794 µM [inhibitor, full curve, poor fit]
CC(=O)OC1(c2ccccc2)CC(C(C)(C)C)CN(C(C)(C)C)C1 (stereo not given) | inconclusive: 12.6 µM [activator, partial curve, poor fit]
CCN1CCCC1CNCc1cccc(OC)c1OCc1ccccc1 (stereo not given) | inactive
Nc1nc(-c2ccc(Br)cc2)cs1 | inactive
COc1ccc(Cl)cc1NC(=O)C(OC)c1ccccc1 (stereo not given) | inconclusive: 7.94 µM [inhibitor, partial curve, poor fit]
Cc1ccccc1N1CC(C(=O)N2CCCCCC2)CC1=O (stereo not given) | inactive

Structure (SMILES) | Potency
CCCC(CCC)c1nc2ccncc2[nH]1 | inconclusive: 7.94 µM [inhibitor, partial curve, poor fit]
CC(C)CSc1nnc2c(n1)[nH]c1ccccc12 | inconclusive: 7.3 µM [inhibitor, partial curve, poor fit]
COc1cc(/C=N/Nc2cccc(C)c2)cc(Br)c1O | inactive
CN(C)c1nc(-c2cn(CCC#N)c3ccccc23)cs1 | inconclusive: 35.5 µM [inhibitor, single point]
CCN(C(C)=O)c1cnc(C=NNC(N)=S)c2ccccc12 | inconclusive: 5.62 µM [inhibitor, partial curve]
CCOC(=O)C1C(c2cccc(Cl)c2Cl)NC(=O)NC1(O)C(F)(F)F (stereo not given) | inconclusive: 0.259 µM [inhibitor, single point]
CCc1cccc2c(C(=O)CSc3nnc(-c4ccncc4)n3C)c[nH]c12 | inconclusive: 3.98 µM [activator, partial curve, poor fit]
CCc1ccc(C2N=C(N)Nc3nc4ccccc4n32)cc1 (stereo not given) | inactive
Cc1c(Br)cccc1NC(=O)c1sccc1-n1cccc1 | inconclusive: 0.355 µM [activator, partial curve, poor fit]
COc1ccc(CCNC(=O)Cn2c(=O)c3sccc3n(CC(=O)Nc3cccc(C(F)(F)F)c3)c2=O)cc1OC | inconclusive: 35.5 µM [activator, single point]
CCOC(CNC(=O)c1cccn2c(=O)c3cc(Cl)ccc3nc12)OCC | inconclusive: 18.3 µM [inhibitor, single point]
Cc1ccc(NC(=O)c2ccc(COc3ccccc3)o2)nc1 | inactive
CCOC(=O)c1ccc(NC(=O)c2ccc3c(c2)OCO3)cc1 | inconclusive: 25.1 µM [inhibitor, single point]
Cc1cc(Cl)ccc1NC(=S)NCCN1CCOCC1 | inactive
COc1ccc2c(C)cc(SCC(=O)c3ccc4c(c3)OCO4)nc2c1 | inactive
Cc1ccc(S(=O)(=O)/N=C(/Nc2ccc([N+](=O)[O-])cc2[N+](=O)[O-])c2ccccc2)cc1 | inconclusive: 35.5 µM [inhibitor, single point]
CCOC(=O)c1cc(NC(=O)c2ccc(C)cc2)c(=O)n2c1oc1ccccc12 | inactive
CCCCn1c(=O)[nH]c(=O)c2c1nc(-c1ccccc1F)n2Cc1ccccc1OC | inconclusive: 4.47 µM [activator, partial curve, poor fit]
CCOc1cc(CNCCSc2nnnn2C)ccc1OCc1ccc(Cl)cc1Cl | inconclusive: 25.1 µM [inhibitor, single point]
CSC1=NCCN1C(=O)c1c(F)cccc1Cl | inconclusive: 1.58 µM [inhibitor, partial curve]
CCCc1cc(=O)n2[nH]c(C)nc2n1 | inactive
CN(Cc1c(F)cccc1Cl)C(=O)c1ccc(NS(=O)(=O)c2ccc3[nH]c(=O)[nH]c3c2)cc1 | inconclusive: 0.316 µM [activator, full curve, poor fit]
